From publication PMC11093616
Results are given in words; binding and its absence hold for the method and conditions named. Binding seen in cells or lysates may run through a third protein. Some entries that bind do so weakly or less than the wild type. For part of these data: Sequences can lack the tags named with a protein. Each block holds one binder with its values, some of them ahead of it.

Columns and labels:
[1] = molecular target: T1, OTUD4 (OTU domain-containing protein 4), endogenous (human (endogenous in MDA-MB468, HCC827, SKOV3, HCT116)) (UniProt Q01804); test: co-IP; endogenous proteins, MDA-MB468 cells; immunoprecipitation of CD73 (Figure 2B) and of OTUD4 (Figure 2C)
T1 sequence: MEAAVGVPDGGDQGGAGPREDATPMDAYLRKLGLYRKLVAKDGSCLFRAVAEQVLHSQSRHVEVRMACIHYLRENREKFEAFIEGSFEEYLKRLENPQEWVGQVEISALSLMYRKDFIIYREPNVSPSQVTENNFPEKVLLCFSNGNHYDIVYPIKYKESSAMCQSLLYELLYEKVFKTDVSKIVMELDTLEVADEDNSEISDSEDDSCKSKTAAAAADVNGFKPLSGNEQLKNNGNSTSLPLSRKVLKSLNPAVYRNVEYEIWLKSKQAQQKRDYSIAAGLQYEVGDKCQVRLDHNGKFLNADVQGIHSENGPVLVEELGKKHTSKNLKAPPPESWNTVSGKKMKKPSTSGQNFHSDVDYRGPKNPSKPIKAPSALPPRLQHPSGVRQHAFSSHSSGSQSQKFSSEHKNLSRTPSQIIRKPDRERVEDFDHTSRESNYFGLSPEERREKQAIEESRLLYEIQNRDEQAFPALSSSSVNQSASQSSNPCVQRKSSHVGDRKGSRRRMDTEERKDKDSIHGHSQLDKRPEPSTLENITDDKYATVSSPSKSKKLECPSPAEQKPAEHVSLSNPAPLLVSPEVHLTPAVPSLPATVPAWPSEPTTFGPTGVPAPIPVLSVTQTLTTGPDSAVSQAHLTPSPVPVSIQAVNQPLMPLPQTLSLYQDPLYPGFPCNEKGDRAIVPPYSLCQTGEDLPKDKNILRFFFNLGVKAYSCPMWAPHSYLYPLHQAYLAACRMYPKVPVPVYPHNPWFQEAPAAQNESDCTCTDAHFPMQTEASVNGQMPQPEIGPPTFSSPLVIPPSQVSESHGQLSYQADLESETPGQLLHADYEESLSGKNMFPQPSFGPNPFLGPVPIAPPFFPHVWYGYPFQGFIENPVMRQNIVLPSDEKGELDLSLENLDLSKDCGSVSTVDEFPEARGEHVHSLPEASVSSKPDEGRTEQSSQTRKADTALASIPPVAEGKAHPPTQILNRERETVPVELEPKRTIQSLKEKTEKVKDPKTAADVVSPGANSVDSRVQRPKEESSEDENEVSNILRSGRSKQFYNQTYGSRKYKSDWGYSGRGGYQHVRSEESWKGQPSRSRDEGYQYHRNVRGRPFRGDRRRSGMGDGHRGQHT

[2] = molecular target: T2, V5-tagged OTUD4 mutant without the R380-N410 segment (human) (UniProt Q01804); test: co-IP; HEK293T cotransfected with V5-tagged OTUD4 constructs and Flag/HA-tagged CD73 constructs; V5-tagged OTUD4 precipitated, blot with anti-Flag
T2 sequence: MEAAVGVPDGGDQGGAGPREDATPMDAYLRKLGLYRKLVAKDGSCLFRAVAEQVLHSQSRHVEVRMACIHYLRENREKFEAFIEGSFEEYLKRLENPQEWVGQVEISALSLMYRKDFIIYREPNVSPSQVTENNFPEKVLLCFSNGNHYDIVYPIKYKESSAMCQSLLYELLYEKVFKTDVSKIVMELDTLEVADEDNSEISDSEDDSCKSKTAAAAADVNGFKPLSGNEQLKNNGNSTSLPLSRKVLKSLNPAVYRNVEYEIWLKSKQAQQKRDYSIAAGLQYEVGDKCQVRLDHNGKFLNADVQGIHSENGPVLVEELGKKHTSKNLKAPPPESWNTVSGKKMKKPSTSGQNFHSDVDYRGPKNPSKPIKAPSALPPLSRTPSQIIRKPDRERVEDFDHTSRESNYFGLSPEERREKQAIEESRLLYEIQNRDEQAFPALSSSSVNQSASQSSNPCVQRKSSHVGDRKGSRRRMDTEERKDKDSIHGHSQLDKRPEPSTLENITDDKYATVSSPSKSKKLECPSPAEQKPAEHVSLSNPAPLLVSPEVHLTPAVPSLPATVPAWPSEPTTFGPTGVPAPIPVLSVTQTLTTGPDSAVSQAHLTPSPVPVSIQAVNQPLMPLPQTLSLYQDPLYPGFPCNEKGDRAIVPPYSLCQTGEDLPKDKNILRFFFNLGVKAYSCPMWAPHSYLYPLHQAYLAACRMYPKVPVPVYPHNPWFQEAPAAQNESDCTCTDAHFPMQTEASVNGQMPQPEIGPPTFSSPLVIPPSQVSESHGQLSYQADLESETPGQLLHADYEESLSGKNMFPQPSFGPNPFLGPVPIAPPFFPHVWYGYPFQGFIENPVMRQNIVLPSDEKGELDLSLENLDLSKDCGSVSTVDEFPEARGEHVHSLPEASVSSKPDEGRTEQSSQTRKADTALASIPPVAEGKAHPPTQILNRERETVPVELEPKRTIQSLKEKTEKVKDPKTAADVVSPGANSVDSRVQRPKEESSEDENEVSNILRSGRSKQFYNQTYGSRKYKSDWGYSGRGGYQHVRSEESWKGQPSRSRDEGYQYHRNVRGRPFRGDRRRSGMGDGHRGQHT

V5-tagged OTUD4 (human) = molecular target: T3, V5-tagged OTUD4 (human) (UniProt Q01804); test: as above
T3 sequence: T1 sequence

binding [1]: binds
B1: CD73, endogenous (protein, UniProt P21589 27-549)
chain: WELTILHTNDVHSRLEQTSEDSSKCVNASRCMGGVARLFTKVQQIRRAEPNVLLLDAGDQYQGTIWFTVYKGAEVAHFMNALRYDAMALGNHEFDNGVEGLIEPLLKEAKFPILSANIKAKGPLASQISGLYLPYKVLPVGDEVVGIVGYTSKETPFLSNPGTNLVFEDEITALQPEVDKLKTLNVNKIIALGHSGFEMDKLIAQKVRGVDVVVGGHSNTFLYTGNPPSKEVPAGKYPFIVTSDDGRKVPVVQAYAFGKYLGYLKIEFDERGNVISSHGNPILLNSSIPEDPSIKADINKWRIKLDNYSTQELGKTIVYLDGSSQSCRFRECNMGNLICDAMINNNLRHTDEMFWNHVSMCILNGGGIRSPIDERNNGTITWENLAAVLPFGGTFDLVQLKGSTLKKAFEHSVHRYGQSTGEFLQVGGIHVVYDLSRKPGDRVVKLDVLCTKCRVPSYDPLKMDEVYKVILPNFLANGGDGFQMIKDELLRHDSGDQDINVVSTYISKMKVIYPAVEGRIKFS

binding [2]: no binding
binding (V5-tagged OTUD4 (human)): binds
B2: Flag/HA-tagged CD73 (HEK293T) (protein, UniProt P21589 27-549)
chain: B1 chain
